In this series the target is YhaJ (UniProt P67660). Briefly: EMSA. To be noted: 0.5 uM YhaJ, shift reduced by 20x specific, not by kan competitor, DIG Gel Shift Kit (Roche) with minor modifications, salt and pH not stated, probe stock ~0.4 ng/ul, 20 min at 30 C, 6% DNA retardation gel, recombinant protein, residues 1-298, protein details: N-terminal 6xHis (pET-28b), label: DIG (ddUTP-11-DIG), probe letters rebuilt from the primers and the genome.

The chains behind the UniProt entries cited, without tags or fusion partners. Where a name states a change or a piece, a line headed by the entry shows the natural chain unless it says otherwise.
UniProt P67660: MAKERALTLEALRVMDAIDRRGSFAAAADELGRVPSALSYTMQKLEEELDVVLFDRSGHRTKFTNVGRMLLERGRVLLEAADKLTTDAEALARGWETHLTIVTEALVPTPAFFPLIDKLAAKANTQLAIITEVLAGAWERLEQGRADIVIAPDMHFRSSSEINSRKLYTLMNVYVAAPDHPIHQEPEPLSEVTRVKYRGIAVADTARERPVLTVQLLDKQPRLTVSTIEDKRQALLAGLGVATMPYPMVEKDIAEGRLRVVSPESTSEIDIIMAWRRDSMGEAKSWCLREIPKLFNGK

This note sets out measurements from PMC5031710.

For at least one entry, the source does not settle the construct or the ends of the probe.

Turning to “ACATTCCTTCAGCTGCTAGTGCGGCAGGAAGCATTTCCATTAATGAGATGAGCAACATGATCCCCGCCGCAAAACCTAGCGAAAACGCCAGTAAGCGGTTCGAGGGTTTTTGCCCGAGAACGCCGAGAAACGCGCCAATAAACGTGGCTGCCCCCGCCAGTATGGTCAGAATGAGAGGTACTGACATCGACAACTCCTTATAAATCTTCACCTTCAGGCAGATCGTCAAAATAACTGATGATCATCATCATTGTTATCCGGGTTCTTACTCCGCCGAACAAGCGTATTGTGAGGATATCAAAATGACACCTTTAGTTAAGGA (double strand) [ygiD promoter]”, the binding result is listed as “binds”.

With “ACTGGTTTGTCAGCGAATAATATGCAGTGATTTTTGTTTTTGCCGGGTCGCCCCGGCTTTTTTATTTTACTTACAAATTTCGAGTACAAAATTTCTACACTTCCTCAAAATAATTGCACAATATGCTAAAAAAATATGAATGACATGCTGTTTTATTGTTCATATAAATCTTAAAAGCAAAAATTTATCTGTTCCCCCCTTTAAAAATTCGGTGAATACCCTTACTTATTGGTATACTGAAGTTGCTTCAGATAAAAACGCATTGAACCTCGAATAACGTTGTCTAGTAACACGAATTAGGGGGCCATGATGGAAAAAAATAATGAAGTCATTCAGA (double strand) [yceP promoter]”, the binding result is “binds”.

As to “AGCAGCAACAACAGTATTGATAGTTTTCATAATTAATCTCTCGCAGGTGATTTTTGTATAAGTGACGTTGTTTCGTCGATGTGATGAGTATCACGTTTTTTTTCGAGAGATAAAATCGAAGAGAATTGACCGCCTTGTTCAAATAAATTGATTGATATCTAACATACTGATAATCCATTTATTTGTTGAACTTATGGACTTGTTTTATGCAGCGTGGCAGTCACGACAGCGTTAAAGGCACGGAATGCCACGCAAAATACAAATTATACTCGCTATACATCCCGCCAGTTGTAGTTAACGTAACTGGCTGTCTTTCGAACCTCTGCGATTATATC (double strand) [ybiJ promoter]”, the binding result was “binds”.

In the case of “CGGTCAGAGAAGAGATGAAGCCGGAGATGGGCGATTACGGGCGCGTTTATGATGCGTTGTATCAAACCATCACCAACGGTGCGCCAAATTACGTCAAGGAATCTGAAGTTCTTACCAATCTGGAAATCCTTGAACGAGGATTTGAGCAAGCCTCTCCCTCCACAGTGACTCTCGCGAAGTAAGTTTGATGGCCCCTCGAATAGTTCAATTTTTTTGAACAGAGGGGTCAATTTTCACCCTCTATCATCCCAGGCGGATCGGGTCCACACTAAGCCCATCGAAATCATTCAGGGGGCGAATAAAAATGATCTACTTACGCAAAGCAAATGA (double strand) [yhhW promoter]”, the binding result is “binds”.

Turning to “GCAGTTCGGGTAGTAATCATAATTCTTGACCTCTCTTTACTTCCTTTTATGGTAAGGGGCTGGACGCTACATTGTTAGCCAGATATTCTGCCCGGTATGTTCAAATTTCCTGAATGAGAACGAAATGGCCAAAGAAAGGGCATTAACGCTGGAAGCACTACGGGTTATGGATGCGATCGATCGCCGGGGCAGTTTTGCGGCGGCGGCGGATGAGCTGGGACGCGTGCCTTCCGCACTTAGCTACACCATGCAAAAACTGGAAGAAGAGCTGGATGTGGTGCTGTTTGACCGCTCGGGCCATCGTACCAAATTCACCAATG (double strand) [yhaK promoter]”, the binding result is listed as “binds”.

Consider “TGGATCTTTCCGCCAGTCGTCGTGAATGGCTGGAGGCAACAGGCGCTTACGATCGTCGCTGGAATATGCTGCTAAGTCTGCGCTCCTGGGCGCTGGTAGGCAGTAGCGTGATGGCGATCTGGACGATTCGCCATCCTAATATGCTGGTCCGCTGGGCCAGACGCGGTTTTGGCGTATGGAGCGCCTGGCGTCTGGTGAAAACGACCCTCAAGCAGCAACAACTTCGCGGTTAACTTCCCTCTGGCCGGAGCCATTCCGGCCTTATCCCTCAAATTTTTTGAAGATTTTTGACAGTTTTCCTTGCTAACATTCATCATTCACCACGTTTATG (double strand) [yqjF promoter]”, for which the binding result is “binds”.
